Measurements reported in PubChem BioAssay AID1159584 (Peter MacCallum Cancer Centre, 2016)
The deposit covers about 18,000 reagents; below is a part drawn at random. Not all columns of the deposit are shown. The record does not give: the amount of reagent, the time to read-out.

Test: 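Genes whose loss is lethal only together with E-cadherin loss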 (primary screen)
Cell system: human MCF10A breast epithelial cells, parental and CDH1-null
Reagent: siRNA against human genes
Measurement: 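ATP luminescence (CellTiter-Glo) viability per line relative to mean mock wells over all plates, and the ratio of CDH1-null to parental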
Direction: CDH1-null / parental viability ratio: higher = CDH1-null cells survive relatively better than parental

| CDH1-null / parental viability ratio | gene knocked down |
| --- | --- |
| 0.74 | SPOUT1 |
| 0.9 | TRIM49 |
| 1.19 | USP31 |
| 1.04 | AQP10 |
| 1.35 | USP2 |
| 0.9 | PAIP2 |
| 1.03 | HBE1 |
| 1.16 | ALG12 |
| 1.02 | AFG2B |
| 1.59 | CLCN1 |
| 1.23 | CDH2 |
| 1.39 | COPS3 |
| 0.98 | CD86 |
| 0.71 | FAM90A1 |
| 1.38 | IFNA21 |
| 1.05 | SLC4A10 |
| 0.96 | AASDHPPT |
| 1.1 | WASHC5 |
| 0.93 | AMELX |
| 0.92 | PPIG |
| 0.85 | LAMB3 |
| 1.07 | POLR3E |
| 1.14 | PDSS2 |
| 1.27 | CTAGE1 |
| 1.16 | GNMT |
| 1.23 | CFAP54 |
| 0.94 | DNER |
| 1.08 | YPEL1 |
| 1.2 | SNX10 |
| 0.89 | MCAM |
| 1.16 | KIR3DL2 |
| 0.8 | RNASEK |
| 1.24 | CEMIP2 |
| 1.06 | USB1 |
| 1.32 | DYRK2 |
| 0.86 | JMY |
| 1.2 | BIRC6 |
| 1.22 | DPPA2 |
| 1.08 | PROZ |
| 0.8 | AURKB |
| 1.28 | PTPN11 |
| 1.16 | BTBD7 |
| 1.01 | NR2F2 |
| 0.98 | SLC22A17 |
| 0.75 | GINS2 |
| 0.94 | SLC25A41 |

Ordered by “CDH1-null / parental viability ratio” (highest first): some entries from above.
| CDH1-null / parental viability ratio | gene knocked down |
| --- | --- |
| 1.2 | SNX10 |
| 1.08 | YPEL1 |
| 0.89 | MCAM |
